Data source: PubChem BioAssay AID1224827 (NIAID, 2016)
The deposit covers about 3,800 reagents; shown is an unselected part. About 2,200 of all reagents (57%) count as active. 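Active means a strong reporter change in either direction; calls are per siRNA, not per gene; qiagen siRNAs gave weaker effects.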 A number with no mark means an inactive call. The numbers tell different reagents against one gene apart. Not all columns of the deposit are shown.

Aim: 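Confirm genes whose knock-down changes LPS-driven TNF promoter activity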 (follow-up of hits)
Cell system: RAW264.7 G9 mouse macrophage reporter clone
Reagents: single siRNA against mouse genes, 100 nM siRNA
Duration: siRNA for 2 days, then LPS about 16 h
Challenge: bacterial lipopolysaccharide (LPS), 10 ng/ml, cells fixed after overnight (about 16 h) stimulation
Read-out: 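Imaged nuclear TNF reporter intensity, background removed, scaled per plate and to non-targeting control wells, as z-scores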
Direction: TNF reporter z-score, mean: higher = stronger Tnf promoter reporter signal; gene median z, three same-vendor siRNAs: higher = stronger Tnf reporter signal for the gene
Active means: 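An siRNA is called active when its mean z-score over replicates is at least +2 or at most -2; control wells get no call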

2810032G03Rik #1 → TNF reporter z-score, mean = -1.63; gene median z, three same-vendor siRNAs = -3.84
2810032G03Rik #2 → TNF reporter z-score, mean = -3.84 (active); gene median z, three same-vendor siRNAs = -3.84
2810032G03Rik #3 → TNF reporter z-score, mean = -5.11 (active); gene median z, three same-vendor siRNAs = -3.84
2810032G03Rik #4 → TNF reporter z-score, mean = 1.38; gene median z, three same-vendor siRNAs = -1.12
2810032G03Rik #5 → TNF reporter z-score, mean = -1.81; gene median z, three same-vendor siRNAs = -1.12
2810032G03Rik #6 → TNF reporter z-score, mean = -2.43 (active); gene median z, three same-vendor siRNAs = -1.12
Psme3 #1 → TNF reporter z-score, mean = -1.22; gene median z, three same-vendor siRNAs = -1.98
Psme3 #2 → TNF reporter z-score, mean = -1.98; gene median z, three same-vendor siRNAs = -1.98
Psme3 #3 → TNF reporter z-score, mean = -3.71 (active); gene median z, three same-vendor siRNAs = -1.98
Psme3 #4 → TNF reporter z-score, mean = 3.05 (active); gene median z, three same-vendor siRNAs = 1.18
Psme3 #5 → TNF reporter z-score, mean = 0.58; gene median z, three same-vendor siRNAs = 1.18
Psme3 #6 → TNF reporter z-score, mean = -0.0102; gene median z, three same-vendor siRNAs = 1.18

Continued (3 carried over from the part before).
Psme3 #4 → TNF reporter z-score, mean = 3.05 (active); gene median z, three same-vendor siRNAs = 1.18
Psme3 #5 → TNF reporter z-score, mean = 0.58; gene median z, three same-vendor siRNAs = 1.18
Psme3 #6 → TNF reporter z-score, mean = -0.0102; gene median z, three same-vendor siRNAs = 1.18
Trim2 #1 → TNF reporter z-score, mean = 0.76; gene median z, three same-vendor siRNAs = -3.74
Trim2 #2 → TNF reporter z-score, mean = -3.74 (active); gene median z, three same-vendor siRNAs = -3.74
Trim2 #3 → TNF reporter z-score, mean = -5.95 (active); gene median z, three same-vendor siRNAs = -3.74
Trim2 #4 → TNF reporter z-score, mean = 3.35 (active); gene median z, three same-vendor siRNAs = -0.505
Trim2 #5 → TNF reporter z-score, mean = -0.00315; gene median z, three same-vendor siRNAs = -0.505
Trim2 #6 → TNF reporter z-score, mean = -2.24 (active); gene median z, three same-vendor siRNAs = -0.505
Nr0b2 #1 → TNF reporter z-score, mean = 0.476; gene median z, three same-vendor siRNAs = -3.46
Nr0b2 #2 → TNF reporter z-score, mean = -4.59 (active); gene median z, three same-vendor siRNAs = -3.46
Nr0b2 #3 → TNF reporter z-score, mean = -4.86 (active); gene median z, three same-vendor siRNAs = -3.46
Nr0b2 #4 → TNF reporter z-score, mean = -0.121; gene median z, three same-vendor siRNAs = -4.23
Nr0b2 #5 → TNF reporter z-score, mean = -4.23 (active); gene median z, three same-vendor siRNAs = -4.23
Nr0b2 #6 → TNF reporter z-score, mean = -4.65 (active); gene median z, three same-vendor siRNAs = -4.23
Adra1a #1 → TNF reporter z-score, mean = 5.5 (active); gene median z, three same-vendor siRNAs = -0.211
Adra1a #2 → TNF reporter z-score, mean = -0.529; gene median z, three same-vendor siRNAs = -0.211
Adra1a #3 → TNF reporter z-score, mean = -1.52; gene median z, three same-vendor siRNAs = -0.211
Adra1a #4 → TNF reporter z-score, mean = -1.79; gene median z, three same-vendor siRNAs = -2.27
Adra1a #5 → TNF reporter z-score, mean = -2.46 (active); gene median z, three same-vendor siRNAs = -2.27
Adra1a #6 → TNF reporter z-score, mean = -2.27 (active); gene median z, three same-vendor siRNAs = -2.27
Akr1b7 #1 → TNF reporter z-score, mean = 1.54; gene median z, three same-vendor siRNAs = -1.61
Akr1b7 #2 → TNF reporter z-score, mean = -1.61; gene median z, three same-vendor siRNAs = -1.61
Akr1b7 #3 → TNF reporter z-score, mean = -3.15 (active); gene median z, three same-vendor siRNAs = -1.61
Akr1b7 #4 → TNF reporter z-score, mean = -0.554; gene median z, three same-vendor siRNAs = -1.72
Akr1b7 #5 → TNF reporter z-score, mean = -1.07; gene median z, three same-vendor siRNAs = -1.72
Akr1b7 #6 → TNF reporter z-score, mean = -2.25 (active); gene median z, three same-vendor siRNAs = -1.72
